In the supplement of paper PMC10849652 one finds log2 fold change data, which are given here for 38 targets.

Protein sequences, listed by entry. Tags and fused reporters are not part of them. Lines headed by an entry give the natural chain unless they say otherwise; changes in a name come on top.
UniProt Q9NR96: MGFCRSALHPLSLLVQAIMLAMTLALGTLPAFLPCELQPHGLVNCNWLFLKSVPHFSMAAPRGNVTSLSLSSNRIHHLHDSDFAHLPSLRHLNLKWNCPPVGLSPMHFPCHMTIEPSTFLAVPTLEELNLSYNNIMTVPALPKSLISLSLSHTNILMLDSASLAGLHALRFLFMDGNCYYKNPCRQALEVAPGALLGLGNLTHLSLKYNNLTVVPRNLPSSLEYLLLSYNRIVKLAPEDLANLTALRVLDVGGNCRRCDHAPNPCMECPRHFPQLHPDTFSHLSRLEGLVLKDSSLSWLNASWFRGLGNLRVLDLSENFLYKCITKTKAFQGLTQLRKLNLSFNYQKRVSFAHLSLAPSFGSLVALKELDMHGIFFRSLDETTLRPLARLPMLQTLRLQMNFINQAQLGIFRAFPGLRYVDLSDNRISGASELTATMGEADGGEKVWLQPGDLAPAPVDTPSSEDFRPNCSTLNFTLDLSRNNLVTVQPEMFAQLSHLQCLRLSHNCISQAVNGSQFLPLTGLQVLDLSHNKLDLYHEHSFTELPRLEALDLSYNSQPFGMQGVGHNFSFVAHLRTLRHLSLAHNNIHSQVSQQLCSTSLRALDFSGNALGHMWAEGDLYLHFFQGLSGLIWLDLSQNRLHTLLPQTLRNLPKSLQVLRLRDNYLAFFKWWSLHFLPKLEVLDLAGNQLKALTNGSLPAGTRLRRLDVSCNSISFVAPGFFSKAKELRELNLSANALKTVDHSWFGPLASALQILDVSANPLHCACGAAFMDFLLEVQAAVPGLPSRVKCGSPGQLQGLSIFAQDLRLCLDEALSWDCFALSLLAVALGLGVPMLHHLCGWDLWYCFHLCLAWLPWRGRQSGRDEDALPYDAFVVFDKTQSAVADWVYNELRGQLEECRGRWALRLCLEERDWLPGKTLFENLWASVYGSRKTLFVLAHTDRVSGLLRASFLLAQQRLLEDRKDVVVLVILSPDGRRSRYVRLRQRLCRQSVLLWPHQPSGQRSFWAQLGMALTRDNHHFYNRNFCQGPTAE
UniProt P29401: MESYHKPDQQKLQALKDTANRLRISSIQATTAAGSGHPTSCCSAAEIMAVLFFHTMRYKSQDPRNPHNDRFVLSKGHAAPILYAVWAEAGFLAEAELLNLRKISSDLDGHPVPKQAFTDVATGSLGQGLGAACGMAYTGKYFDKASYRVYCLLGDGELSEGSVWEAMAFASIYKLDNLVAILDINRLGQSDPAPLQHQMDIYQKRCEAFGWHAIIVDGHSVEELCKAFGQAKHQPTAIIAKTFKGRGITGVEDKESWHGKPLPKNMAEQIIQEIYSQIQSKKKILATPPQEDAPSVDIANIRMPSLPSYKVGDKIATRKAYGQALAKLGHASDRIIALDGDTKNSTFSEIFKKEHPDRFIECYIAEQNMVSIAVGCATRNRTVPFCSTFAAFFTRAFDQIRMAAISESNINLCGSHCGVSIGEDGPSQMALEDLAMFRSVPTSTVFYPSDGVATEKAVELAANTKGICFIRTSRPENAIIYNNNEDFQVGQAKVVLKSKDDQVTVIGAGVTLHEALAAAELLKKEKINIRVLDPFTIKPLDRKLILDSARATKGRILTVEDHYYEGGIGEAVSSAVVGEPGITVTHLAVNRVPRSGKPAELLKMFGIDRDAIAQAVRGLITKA
UniProt Q9Y5L4: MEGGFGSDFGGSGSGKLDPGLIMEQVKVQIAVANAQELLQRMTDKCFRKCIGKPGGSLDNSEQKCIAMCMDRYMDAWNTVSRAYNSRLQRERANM
UniProt P01137, whole entry, looked up: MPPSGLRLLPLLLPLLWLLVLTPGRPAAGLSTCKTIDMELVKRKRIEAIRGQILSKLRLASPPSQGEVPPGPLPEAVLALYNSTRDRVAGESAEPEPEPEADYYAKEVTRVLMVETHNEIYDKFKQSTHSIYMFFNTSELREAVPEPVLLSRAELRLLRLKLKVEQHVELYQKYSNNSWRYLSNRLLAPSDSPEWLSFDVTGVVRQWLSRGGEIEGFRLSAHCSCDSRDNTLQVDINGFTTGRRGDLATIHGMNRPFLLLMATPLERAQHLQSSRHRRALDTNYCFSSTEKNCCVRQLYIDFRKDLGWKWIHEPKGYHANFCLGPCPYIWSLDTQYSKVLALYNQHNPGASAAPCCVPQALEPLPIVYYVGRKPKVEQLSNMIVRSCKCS
UniProt O15321, whole entry, looked up: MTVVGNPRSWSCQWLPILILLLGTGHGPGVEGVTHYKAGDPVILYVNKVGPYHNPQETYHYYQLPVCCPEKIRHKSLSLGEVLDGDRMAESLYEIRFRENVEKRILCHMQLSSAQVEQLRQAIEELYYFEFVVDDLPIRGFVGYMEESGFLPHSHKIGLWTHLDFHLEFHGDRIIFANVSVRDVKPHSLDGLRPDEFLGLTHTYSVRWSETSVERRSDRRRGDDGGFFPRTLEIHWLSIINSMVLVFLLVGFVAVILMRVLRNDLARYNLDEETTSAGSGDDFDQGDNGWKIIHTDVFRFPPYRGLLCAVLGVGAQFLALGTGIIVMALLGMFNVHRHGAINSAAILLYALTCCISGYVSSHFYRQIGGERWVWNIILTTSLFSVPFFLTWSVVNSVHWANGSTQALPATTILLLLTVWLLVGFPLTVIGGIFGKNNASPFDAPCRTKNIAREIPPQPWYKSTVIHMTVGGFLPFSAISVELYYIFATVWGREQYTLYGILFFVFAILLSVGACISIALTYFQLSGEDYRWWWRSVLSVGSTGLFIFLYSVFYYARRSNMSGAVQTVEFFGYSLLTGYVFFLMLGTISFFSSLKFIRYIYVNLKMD
UniProt Q9BVW5: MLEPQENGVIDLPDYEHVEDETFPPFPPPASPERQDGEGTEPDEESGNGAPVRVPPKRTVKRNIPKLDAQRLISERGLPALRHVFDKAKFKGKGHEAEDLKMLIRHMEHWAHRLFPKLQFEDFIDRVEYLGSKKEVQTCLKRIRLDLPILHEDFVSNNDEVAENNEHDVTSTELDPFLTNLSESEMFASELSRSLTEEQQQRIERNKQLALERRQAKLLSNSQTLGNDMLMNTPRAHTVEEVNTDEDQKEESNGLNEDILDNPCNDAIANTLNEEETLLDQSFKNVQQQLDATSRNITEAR
UniProt O75204: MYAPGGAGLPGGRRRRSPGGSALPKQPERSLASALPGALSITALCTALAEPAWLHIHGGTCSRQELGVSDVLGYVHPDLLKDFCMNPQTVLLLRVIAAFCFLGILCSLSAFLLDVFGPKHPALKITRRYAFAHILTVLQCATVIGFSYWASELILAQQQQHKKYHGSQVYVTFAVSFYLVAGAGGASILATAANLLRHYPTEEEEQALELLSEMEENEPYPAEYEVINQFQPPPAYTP
UniProt Q96DC7: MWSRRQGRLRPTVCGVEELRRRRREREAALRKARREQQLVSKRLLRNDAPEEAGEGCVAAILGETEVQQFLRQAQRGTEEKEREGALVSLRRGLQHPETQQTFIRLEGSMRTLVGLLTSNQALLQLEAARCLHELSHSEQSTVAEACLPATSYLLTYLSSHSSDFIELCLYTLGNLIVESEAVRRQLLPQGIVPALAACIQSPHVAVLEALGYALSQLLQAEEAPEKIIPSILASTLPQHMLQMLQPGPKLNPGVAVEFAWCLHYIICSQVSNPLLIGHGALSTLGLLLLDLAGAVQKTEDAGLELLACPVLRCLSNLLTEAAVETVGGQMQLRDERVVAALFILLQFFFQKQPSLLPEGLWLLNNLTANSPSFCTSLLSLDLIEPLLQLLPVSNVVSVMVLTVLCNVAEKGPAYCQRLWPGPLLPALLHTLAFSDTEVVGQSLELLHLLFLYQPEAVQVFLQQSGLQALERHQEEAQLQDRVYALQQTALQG
UniProt Q9P2C4: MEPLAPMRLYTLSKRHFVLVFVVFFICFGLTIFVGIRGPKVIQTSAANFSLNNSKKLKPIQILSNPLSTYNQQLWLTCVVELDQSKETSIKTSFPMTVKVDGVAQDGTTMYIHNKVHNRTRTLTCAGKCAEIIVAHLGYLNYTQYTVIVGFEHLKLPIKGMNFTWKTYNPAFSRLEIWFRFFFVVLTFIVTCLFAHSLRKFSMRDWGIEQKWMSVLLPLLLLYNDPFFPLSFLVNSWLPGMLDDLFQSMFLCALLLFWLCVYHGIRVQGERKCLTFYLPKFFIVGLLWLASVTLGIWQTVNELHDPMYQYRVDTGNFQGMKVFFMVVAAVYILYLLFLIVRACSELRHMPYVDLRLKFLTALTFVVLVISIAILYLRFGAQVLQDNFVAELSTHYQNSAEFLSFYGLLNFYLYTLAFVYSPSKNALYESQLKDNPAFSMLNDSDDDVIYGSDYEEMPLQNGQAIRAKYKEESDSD
UniProt Q96I45: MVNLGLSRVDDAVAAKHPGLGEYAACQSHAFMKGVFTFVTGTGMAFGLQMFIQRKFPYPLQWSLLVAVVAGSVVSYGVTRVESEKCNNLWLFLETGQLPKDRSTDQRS
UniProt Q969X1: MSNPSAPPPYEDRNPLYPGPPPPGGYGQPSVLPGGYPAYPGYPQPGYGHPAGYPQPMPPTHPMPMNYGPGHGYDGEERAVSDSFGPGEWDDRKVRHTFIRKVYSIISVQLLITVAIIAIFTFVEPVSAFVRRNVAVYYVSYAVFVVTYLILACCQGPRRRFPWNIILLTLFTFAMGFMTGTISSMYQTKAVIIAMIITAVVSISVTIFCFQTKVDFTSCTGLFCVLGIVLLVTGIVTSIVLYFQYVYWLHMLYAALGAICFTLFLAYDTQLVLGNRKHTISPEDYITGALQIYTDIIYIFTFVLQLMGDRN
UniProt Q96CP7: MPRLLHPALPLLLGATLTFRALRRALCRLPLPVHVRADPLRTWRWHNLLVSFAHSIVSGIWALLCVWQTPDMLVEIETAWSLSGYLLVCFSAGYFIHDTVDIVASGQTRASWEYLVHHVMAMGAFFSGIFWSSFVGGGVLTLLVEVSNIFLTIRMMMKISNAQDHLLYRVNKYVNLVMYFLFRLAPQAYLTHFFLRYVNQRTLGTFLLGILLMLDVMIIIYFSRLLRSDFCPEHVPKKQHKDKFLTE
UniProt Q9Y5J7: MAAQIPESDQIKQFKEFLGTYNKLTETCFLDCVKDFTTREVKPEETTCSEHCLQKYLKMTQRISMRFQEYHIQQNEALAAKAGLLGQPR
UniProt Q96MV1: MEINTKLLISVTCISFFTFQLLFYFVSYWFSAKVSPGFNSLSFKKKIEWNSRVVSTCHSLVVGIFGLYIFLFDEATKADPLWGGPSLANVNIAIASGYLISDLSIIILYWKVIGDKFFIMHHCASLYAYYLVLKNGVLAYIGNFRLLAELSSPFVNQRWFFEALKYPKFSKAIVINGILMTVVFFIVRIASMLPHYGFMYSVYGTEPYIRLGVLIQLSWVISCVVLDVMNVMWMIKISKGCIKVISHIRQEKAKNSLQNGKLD
UniProt Q9BU02: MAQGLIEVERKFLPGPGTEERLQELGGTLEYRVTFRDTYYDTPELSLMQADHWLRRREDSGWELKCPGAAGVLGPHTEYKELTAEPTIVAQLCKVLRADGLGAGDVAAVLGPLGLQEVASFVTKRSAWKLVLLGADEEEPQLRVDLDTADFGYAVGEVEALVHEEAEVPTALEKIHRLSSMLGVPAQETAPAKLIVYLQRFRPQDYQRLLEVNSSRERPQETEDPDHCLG
UniProt Q9HD45: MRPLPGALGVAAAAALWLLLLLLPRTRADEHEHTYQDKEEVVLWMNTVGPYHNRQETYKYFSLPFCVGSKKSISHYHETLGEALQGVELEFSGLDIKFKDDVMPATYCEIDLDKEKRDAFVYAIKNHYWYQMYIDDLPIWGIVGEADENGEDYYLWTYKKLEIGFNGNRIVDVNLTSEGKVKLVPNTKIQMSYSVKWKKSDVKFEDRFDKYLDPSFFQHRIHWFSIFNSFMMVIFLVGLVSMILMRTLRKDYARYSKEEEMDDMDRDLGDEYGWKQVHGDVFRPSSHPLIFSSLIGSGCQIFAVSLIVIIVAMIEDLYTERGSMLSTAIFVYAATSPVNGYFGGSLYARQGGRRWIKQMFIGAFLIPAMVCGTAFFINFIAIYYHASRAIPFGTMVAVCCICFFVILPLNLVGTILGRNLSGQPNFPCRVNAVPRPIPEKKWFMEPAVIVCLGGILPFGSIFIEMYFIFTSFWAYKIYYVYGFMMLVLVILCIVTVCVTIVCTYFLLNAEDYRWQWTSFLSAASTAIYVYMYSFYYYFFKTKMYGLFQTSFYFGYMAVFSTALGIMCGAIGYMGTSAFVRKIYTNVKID
UniProt O14925: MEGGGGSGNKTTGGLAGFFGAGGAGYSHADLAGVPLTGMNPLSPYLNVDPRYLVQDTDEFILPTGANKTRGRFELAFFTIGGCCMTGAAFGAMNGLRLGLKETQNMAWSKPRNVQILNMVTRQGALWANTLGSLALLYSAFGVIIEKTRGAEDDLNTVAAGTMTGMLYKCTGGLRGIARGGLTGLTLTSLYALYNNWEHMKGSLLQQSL
UniProt Q9NPL8: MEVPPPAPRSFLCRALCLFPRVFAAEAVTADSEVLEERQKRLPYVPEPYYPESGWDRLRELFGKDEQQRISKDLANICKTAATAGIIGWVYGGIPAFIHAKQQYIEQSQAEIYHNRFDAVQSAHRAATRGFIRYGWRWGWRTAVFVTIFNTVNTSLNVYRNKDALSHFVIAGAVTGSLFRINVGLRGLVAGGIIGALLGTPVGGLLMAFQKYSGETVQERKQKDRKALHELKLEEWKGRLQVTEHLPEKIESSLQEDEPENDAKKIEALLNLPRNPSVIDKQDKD

The list shows a part of the results.

Compound in the first assay: CC1=C2C(=CC=C1)N=C(N(C2=O)C3=CC=CC=C3C)CN4C=NC5=C(N=CN=C54)N
Kind of assay: log2 fold change, soluble protein after heating vs DMSO (PISA); higher = thermal stabilisation; K562 lysate, 10 uM; active = over 0.2 and 3.5 SD of the protein, either way, in both replicates (recomputed). A digest of the protocol: (§1)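 Pellets of K562 cells were dounce-homogenised in PBS pH 7.4 with 1 mM MgCl2, and the crude extract was held at 1 mg/mL protein for a 30 min treatment with 10 μM compound. Aliquots were heated for 3 min over 48°C-58°C and pooled before NP-40 was added to 0.5% at 4°C. The supernatant from 21,000xg for 90 min was quantified by TMTpro 16plex LC-MS/MS with channel sums equalised. Values are reported from duplicates as log-two fold change in thermal stability relative to solvent controls.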
As to TIMP1 (UniProt P01033), the log2 fold change was inactive: -0.014.
The same measure, in the same setting: the figure for TLR9 isoform 4 (UniProt Q9NR96) is inactive: -0.079; for TKT isoform 2 (UniProt P29401) it is inactive: 0.
The same measure, in the same setting: the result for THUMPD1 (UniProt Q9NXG2) reads inactive: 0.01; that for TGOLN2 isoform 7 (UniProt O43493), inactive: -0.015; that for TIMM13 (UniProt Q9Y5L4), inactive: -0.012.
On the same count and under the same terms, the result for TGFB1 (UniProt P01137) reads inactive: -0.011; that for TJP1 (UniProt G3V1L9), inactive: 0.127; that for TM9SF1 (UniProt O15321), inactive: 0.116.
TMEM120A (UniProt Q9BXJ8): the log2 fold change was inactive: 0.316.
Regarding TIPIN (UniProt Q9BVW5), the log2 fold change was inactive: -0.002.
Still for that read-out and setting: the figure for TMA7 (UniProt Q9Y2S6) is inactive: 0.007.
The same measure, in the same setting: the result for THRAP3 (UniProt Q9Y2W1) reads inactive: 0.011; that for TMEM160 (UniProt Q9NX00), inactive: 0.12; that for TMEM127 (UniProt O75204), inactive: 0.173.
Still for that read-out and setting: the figure for TIMM22 (UniProt Q9Y584) is inactive: 0.128; for TICAM2 isoform 2 (UniProt Q86XR7) it is inactive: 0.004; for TMCO6 isoform 2 (UniProt Q96DC7) it is inactive: -0.034.
As for THAP9 (UniProt Q9H5L6), the log2 fold change was inactive: 0.165.
Same read-out and setting: the result for TMEM181 (UniProt Q9P2C4) reads inactive: 0.179; that for TJP1 isoform 2 (UniProt Q07157), inactive: 0.
The same measure, in the same setting: the figure for TMED10 (UniProt P49755) is inactive: 0.034; for TIMM17A (UniProt Q99595) it is inactive: 0.03.
Consider TMEM141 (UniProt Q96I45), for which the log2 fold change is inactive: -0.038.
On the same count and under the same terms, the figure for TMBIM1 (UniProt Q969X1) is inactive: 0.031.
Still for that read-out and setting: the result for TLCD1 (UniProt Q96CP7) reads inactive: 0.011; that for TK1 (UniProt P04183), inactive: -0.017; that for TMCO1 (UniProt Q9UM00), inactive: 0.052.
The same measure, in the same setting: the figure for TIMM9 (UniProt Q9Y5J7) is inactive: -0.046; for TLCD4 (UniProt Q96MV1) it is inactive: 0.031.
For the target THTPA (UniProt Q9BU02), the log2 fold change was inactive: 0.055.
Same read-out and setting: the figure for TM9SF3 (UniProt Q9HD45) is inactive: 0.016.
Same read-out and setting: the result for TIMM23 (UniProt O14925) reads inactive: -0.046; that for THEMIS2 (UniProt Q5TEJ8), inactive: 0.019.
Same read-out and setting: the figure for TMEM14C (UniProt Q9P0S9) is inactive: 0.14; for TJAP1 (UniProt Q5JTD0) it is inactive: 0.036.
In the case of TMEM165 (UniProt Q9HC07), the log2 fold change is inactive: 0.014.
In the case of TIMMDC1 (UniProt Q9NPL8), the log2 fold change was inactive: 0.016.

Compound in the next assay: Cc1sc2c(c1C)C(c1ccc(Cl)cc1)=N[C@@H](CC(=O)OC(C)(C)C)c1nnc(C)n1-2
Described as above. A digest of the protocol: as §1
On to TIMP1 (UniProt P01033), for which the log2 fold change was inactive: -0.023.
On the same count and under the same terms, the figure for TLR9 isoform 4 (UniProt Q9NR96) is inactive: 0.077; for TKT isoform 2 (UniProt P29401) it is inactive: -0.023; for THUMPD1 (UniProt Q9NXG2) it is inactive: -0.033.
As for TGOLN2 isoform 7 (UniProt O43493), the log2 fold change was inactive: -0.017.
Still for that read-out and setting: the result for TIMM13 (UniProt Q9Y5L4) reads inactive: -0.045; that for TGFB1 (UniProt P01137), inactive: -0.022; that for TJP1 (UniProt G3V1L9), inactive: 0.009.
On the same count and under the same terms, the result for TM9SF1 (UniProt O15321) reads inactive: -0.025; that for TMEM120A (UniProt Q9BXJ8), inactive: -0.198; that for TIPIN (UniProt Q9BVW5), inactive: -0.037.
Still for that read-out and setting: the figure for TMA7 (UniProt Q9Y2S6) is inactive: -0.003.
Regarding THRAP3 (UniProt Q9Y2W1), the log2 fold change is inactive: -0.05.
The same measure, in the same setting: the figure for TMEM160 (UniProt Q9NX00) is inactive: 0.057; for TMEM127 (UniProt O75204) it is inactive: -0.105.
For TIMM22 (UniProt Q9Y584), the log2 fold change was inactive: 0.118.
Turning to TICAM2 isoform 2 (UniProt Q86XR7), the log2 fold change is inactive: -0.008.
Regarding TMCO6 isoform 2 (UniProt Q96DC7), the log2 fold change is inactive: 0.119.
Turning to THAP9 (UniProt Q9H5L6), the log2 fold change is inactive: -0.194.
Still for that read-out and setting: the figure for TMEM181 (UniProt Q9P2C4) is inactive: -0.049; for TJP1 isoform 2 (UniProt Q07157) it is inactive: 0.061; for TMED10 (UniProt P49755) it is inactive: 0.014.
Still for that read-out and setting: the result for TIMM17A (UniProt Q99595) reads inactive: -0.035.
The same measure, in the same setting: the result for TMEM141 (UniProt Q96I45) reads inactive: -0.088; that for TMBIM1 (UniProt Q969X1), inactive: -0.22.
As to TLCD1 (UniProt Q96CP7), the log2 fold change is inactive: -0.068.
On the same count and under the same terms, the result for TK1 (UniProt P04183) reads inactive: -0.045; that for TMCO1 (UniProt Q9UM00), inactive: -0.003.
Still for that read-out and setting: the result for TIMM9 (UniProt Q9Y5J7) reads inactive: -0.033; that for TLCD4 (UniProt Q96MV1), inactive: -0.01; that for THTPA (UniProt Q9BU02), inactive: 0.066.
On the same count and under the same terms, the result for TM9SF3 (UniProt Q9HD45) reads inactive: 0.001; that for TIMM23 (UniProt O14925), inactive: -0.02; that for THEMIS2 (UniProt Q5TEJ8), inactive: 0.052.
Take TMEM14C (UniProt Q9P0S9): the log2 fold change is inactive: -0.015.
Still for that read-out and setting: the result for TJAP1 (UniProt Q5JTD0) reads inactive: -0.006; that for TMEM165 (UniProt Q9HC07), inactive: -0.014.
Still for that read-out and setting: the result for TIMMDC1 (UniProt Q9NPL8) reads inactive: -0.055.
